Experimental data reported in paper doi:10.1101/2021.08.25.457671.
No constants are given. Whether binding was seen depends on the method and setting. Binding seen in cells or lysates may run through a third protein. Some entries that bind do so weakly or less than the wild type. For part of these data: Tags and fused reporters may be left off the sequences shown.

Chains of the proteins cited; added tags and fusions are not shown.
UniProt P47079: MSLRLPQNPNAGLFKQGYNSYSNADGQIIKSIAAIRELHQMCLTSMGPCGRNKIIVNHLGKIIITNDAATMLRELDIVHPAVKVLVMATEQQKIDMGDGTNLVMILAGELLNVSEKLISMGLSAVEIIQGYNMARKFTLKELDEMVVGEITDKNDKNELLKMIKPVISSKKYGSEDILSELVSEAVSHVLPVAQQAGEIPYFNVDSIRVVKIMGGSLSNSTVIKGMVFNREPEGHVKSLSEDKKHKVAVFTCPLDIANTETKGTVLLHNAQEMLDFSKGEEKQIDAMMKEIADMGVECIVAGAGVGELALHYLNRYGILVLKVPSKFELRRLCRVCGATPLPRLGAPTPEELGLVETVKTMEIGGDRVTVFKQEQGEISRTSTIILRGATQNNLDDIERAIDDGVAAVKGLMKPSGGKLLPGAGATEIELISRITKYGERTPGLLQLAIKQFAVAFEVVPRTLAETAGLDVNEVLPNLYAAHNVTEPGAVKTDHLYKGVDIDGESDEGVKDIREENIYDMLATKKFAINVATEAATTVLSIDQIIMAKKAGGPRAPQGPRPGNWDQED
UniProt P32480: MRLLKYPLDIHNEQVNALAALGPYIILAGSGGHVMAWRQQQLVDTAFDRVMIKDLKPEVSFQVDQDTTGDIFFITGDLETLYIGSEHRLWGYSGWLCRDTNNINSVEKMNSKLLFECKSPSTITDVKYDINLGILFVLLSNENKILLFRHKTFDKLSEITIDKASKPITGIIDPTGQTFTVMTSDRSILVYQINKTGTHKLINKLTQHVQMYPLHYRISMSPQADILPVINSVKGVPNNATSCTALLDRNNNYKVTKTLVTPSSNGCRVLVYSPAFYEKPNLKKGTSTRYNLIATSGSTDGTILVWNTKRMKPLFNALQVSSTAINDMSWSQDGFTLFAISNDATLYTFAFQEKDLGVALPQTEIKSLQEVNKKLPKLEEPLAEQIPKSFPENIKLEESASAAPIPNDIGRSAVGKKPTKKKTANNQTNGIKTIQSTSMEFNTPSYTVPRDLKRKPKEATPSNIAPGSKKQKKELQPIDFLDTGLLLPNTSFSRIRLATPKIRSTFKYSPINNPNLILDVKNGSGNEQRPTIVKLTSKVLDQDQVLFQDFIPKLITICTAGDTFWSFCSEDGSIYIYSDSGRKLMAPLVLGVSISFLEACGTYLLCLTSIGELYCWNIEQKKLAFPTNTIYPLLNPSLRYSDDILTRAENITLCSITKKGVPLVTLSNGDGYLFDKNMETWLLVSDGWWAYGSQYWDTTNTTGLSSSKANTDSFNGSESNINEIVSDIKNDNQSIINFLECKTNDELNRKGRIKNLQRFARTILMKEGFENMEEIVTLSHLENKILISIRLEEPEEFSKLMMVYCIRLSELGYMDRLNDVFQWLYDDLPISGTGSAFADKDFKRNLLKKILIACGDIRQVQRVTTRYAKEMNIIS
UniProt P10591: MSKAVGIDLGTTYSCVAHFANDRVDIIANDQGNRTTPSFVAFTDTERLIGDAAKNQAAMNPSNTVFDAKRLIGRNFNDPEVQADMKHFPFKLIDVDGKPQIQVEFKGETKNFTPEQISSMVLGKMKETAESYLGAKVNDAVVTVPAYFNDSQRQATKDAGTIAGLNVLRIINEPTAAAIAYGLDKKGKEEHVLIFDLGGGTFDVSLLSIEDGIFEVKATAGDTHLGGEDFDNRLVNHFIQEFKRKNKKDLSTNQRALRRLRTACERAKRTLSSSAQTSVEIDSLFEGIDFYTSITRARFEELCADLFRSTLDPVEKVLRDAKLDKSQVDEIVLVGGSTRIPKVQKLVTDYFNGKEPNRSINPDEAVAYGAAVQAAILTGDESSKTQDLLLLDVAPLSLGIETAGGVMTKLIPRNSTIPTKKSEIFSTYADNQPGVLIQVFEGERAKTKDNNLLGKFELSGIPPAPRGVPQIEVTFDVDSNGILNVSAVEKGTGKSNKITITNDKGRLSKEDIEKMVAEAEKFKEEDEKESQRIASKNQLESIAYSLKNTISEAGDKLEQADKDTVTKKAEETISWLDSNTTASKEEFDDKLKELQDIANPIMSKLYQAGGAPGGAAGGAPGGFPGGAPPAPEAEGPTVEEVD

What was measured:
Test in all cases: co-IP
[1] = target: HA-tagged Cct8 (budding yeast) (UniProt P47079)
[2] = target: T1, HA-tagged Pcl7 (budding yeast) (UniProt P40186)
T1 sequence: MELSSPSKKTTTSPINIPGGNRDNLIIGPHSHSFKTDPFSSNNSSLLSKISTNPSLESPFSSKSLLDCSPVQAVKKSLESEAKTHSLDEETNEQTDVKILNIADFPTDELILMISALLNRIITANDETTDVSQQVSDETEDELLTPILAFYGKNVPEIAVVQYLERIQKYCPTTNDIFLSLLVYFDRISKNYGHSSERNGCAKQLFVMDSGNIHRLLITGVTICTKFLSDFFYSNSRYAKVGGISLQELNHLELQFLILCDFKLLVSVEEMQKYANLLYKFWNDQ

[3] = target: T2, HA-tagged Sse1 (budding yeast) (UniProt P32589)
T2 sequence: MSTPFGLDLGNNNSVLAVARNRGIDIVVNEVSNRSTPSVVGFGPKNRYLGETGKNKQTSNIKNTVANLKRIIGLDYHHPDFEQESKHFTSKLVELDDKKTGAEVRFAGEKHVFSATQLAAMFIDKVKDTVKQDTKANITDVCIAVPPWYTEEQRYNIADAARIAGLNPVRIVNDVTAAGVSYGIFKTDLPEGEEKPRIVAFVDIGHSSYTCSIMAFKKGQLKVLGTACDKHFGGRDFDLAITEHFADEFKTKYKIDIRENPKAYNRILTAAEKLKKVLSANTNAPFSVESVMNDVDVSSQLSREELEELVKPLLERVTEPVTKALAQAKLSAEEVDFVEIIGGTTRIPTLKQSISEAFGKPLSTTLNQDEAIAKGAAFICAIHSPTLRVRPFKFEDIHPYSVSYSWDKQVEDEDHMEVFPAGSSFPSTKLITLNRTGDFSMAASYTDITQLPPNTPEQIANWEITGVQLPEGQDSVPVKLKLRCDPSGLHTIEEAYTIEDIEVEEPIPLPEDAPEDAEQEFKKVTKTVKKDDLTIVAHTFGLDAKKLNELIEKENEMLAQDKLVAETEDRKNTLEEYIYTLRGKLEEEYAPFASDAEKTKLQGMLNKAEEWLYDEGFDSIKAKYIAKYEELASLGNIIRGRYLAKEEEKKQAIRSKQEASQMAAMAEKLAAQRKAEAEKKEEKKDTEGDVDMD

Hir2 (budding yeast) = Hir2 (budding yeast) (UniProt P32480)
[4] = target: T3, Pim1 S974D (budding yeast) (UniProt P36775)
T3 sequence: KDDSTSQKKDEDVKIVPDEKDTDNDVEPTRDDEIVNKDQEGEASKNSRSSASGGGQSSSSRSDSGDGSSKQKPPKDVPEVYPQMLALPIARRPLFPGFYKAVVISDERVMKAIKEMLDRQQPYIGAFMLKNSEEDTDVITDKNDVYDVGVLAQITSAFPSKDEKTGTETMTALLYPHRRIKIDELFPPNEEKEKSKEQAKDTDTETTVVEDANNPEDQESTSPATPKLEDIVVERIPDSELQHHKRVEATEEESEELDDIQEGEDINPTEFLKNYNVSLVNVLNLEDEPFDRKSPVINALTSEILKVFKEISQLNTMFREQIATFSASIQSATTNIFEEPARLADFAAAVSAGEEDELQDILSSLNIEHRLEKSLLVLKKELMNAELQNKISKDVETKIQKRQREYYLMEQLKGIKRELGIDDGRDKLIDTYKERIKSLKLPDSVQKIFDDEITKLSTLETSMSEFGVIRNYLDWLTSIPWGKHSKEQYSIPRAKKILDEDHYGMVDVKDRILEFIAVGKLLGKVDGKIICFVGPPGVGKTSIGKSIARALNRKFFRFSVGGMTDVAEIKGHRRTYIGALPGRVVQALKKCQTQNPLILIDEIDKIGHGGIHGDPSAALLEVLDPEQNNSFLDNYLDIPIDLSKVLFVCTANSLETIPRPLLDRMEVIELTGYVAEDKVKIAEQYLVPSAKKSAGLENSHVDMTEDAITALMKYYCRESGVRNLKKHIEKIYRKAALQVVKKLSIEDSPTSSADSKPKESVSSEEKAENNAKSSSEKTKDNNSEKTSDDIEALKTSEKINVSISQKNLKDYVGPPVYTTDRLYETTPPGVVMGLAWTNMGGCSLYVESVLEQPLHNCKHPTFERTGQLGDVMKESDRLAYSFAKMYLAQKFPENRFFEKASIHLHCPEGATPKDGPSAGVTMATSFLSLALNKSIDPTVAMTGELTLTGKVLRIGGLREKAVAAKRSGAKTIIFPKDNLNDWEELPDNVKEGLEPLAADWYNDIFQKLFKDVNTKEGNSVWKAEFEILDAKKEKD

[5] = target: T4, Ste11 R305A (non-methylatable mutant) (budding yeast) (UniProt P23561)
T4 sequence: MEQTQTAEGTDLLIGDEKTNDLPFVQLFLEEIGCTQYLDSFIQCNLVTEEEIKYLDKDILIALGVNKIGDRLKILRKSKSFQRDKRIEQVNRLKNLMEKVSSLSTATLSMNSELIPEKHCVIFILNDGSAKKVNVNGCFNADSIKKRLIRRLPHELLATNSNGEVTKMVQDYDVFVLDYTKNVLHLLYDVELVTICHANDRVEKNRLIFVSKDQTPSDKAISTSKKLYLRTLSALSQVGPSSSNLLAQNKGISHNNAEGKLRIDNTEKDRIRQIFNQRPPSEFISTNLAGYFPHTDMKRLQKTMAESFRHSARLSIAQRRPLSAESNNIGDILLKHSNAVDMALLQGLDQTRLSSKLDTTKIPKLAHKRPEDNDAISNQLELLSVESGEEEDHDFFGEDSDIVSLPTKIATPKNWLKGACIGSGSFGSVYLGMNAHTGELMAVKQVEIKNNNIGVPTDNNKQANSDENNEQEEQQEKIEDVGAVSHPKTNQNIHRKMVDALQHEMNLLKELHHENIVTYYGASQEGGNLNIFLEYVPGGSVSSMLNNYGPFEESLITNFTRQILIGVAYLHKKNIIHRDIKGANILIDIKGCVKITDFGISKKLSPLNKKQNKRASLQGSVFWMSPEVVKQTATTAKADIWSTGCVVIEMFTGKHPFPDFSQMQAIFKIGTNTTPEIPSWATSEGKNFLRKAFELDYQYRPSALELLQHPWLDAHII

Measured: binding

Ssa1 found by immunoblot in co-immunoprecipitates of client proteins from yeast (from UniProt P10591 1-642)
binds: [1] | [2] | [3] | Hir2 (budding yeast) | [4] | [5]
